Assay results published in US20050260657A1.
These are yes or no findings as the source states them, for the method shown. In cells and extracts the contact can be indirect. Some results given as binding are weak or reduced against the parent protein; the word gives no strength.

Chains of the proteins cited; added tags and fusions are not shown.
UniProt Q14643: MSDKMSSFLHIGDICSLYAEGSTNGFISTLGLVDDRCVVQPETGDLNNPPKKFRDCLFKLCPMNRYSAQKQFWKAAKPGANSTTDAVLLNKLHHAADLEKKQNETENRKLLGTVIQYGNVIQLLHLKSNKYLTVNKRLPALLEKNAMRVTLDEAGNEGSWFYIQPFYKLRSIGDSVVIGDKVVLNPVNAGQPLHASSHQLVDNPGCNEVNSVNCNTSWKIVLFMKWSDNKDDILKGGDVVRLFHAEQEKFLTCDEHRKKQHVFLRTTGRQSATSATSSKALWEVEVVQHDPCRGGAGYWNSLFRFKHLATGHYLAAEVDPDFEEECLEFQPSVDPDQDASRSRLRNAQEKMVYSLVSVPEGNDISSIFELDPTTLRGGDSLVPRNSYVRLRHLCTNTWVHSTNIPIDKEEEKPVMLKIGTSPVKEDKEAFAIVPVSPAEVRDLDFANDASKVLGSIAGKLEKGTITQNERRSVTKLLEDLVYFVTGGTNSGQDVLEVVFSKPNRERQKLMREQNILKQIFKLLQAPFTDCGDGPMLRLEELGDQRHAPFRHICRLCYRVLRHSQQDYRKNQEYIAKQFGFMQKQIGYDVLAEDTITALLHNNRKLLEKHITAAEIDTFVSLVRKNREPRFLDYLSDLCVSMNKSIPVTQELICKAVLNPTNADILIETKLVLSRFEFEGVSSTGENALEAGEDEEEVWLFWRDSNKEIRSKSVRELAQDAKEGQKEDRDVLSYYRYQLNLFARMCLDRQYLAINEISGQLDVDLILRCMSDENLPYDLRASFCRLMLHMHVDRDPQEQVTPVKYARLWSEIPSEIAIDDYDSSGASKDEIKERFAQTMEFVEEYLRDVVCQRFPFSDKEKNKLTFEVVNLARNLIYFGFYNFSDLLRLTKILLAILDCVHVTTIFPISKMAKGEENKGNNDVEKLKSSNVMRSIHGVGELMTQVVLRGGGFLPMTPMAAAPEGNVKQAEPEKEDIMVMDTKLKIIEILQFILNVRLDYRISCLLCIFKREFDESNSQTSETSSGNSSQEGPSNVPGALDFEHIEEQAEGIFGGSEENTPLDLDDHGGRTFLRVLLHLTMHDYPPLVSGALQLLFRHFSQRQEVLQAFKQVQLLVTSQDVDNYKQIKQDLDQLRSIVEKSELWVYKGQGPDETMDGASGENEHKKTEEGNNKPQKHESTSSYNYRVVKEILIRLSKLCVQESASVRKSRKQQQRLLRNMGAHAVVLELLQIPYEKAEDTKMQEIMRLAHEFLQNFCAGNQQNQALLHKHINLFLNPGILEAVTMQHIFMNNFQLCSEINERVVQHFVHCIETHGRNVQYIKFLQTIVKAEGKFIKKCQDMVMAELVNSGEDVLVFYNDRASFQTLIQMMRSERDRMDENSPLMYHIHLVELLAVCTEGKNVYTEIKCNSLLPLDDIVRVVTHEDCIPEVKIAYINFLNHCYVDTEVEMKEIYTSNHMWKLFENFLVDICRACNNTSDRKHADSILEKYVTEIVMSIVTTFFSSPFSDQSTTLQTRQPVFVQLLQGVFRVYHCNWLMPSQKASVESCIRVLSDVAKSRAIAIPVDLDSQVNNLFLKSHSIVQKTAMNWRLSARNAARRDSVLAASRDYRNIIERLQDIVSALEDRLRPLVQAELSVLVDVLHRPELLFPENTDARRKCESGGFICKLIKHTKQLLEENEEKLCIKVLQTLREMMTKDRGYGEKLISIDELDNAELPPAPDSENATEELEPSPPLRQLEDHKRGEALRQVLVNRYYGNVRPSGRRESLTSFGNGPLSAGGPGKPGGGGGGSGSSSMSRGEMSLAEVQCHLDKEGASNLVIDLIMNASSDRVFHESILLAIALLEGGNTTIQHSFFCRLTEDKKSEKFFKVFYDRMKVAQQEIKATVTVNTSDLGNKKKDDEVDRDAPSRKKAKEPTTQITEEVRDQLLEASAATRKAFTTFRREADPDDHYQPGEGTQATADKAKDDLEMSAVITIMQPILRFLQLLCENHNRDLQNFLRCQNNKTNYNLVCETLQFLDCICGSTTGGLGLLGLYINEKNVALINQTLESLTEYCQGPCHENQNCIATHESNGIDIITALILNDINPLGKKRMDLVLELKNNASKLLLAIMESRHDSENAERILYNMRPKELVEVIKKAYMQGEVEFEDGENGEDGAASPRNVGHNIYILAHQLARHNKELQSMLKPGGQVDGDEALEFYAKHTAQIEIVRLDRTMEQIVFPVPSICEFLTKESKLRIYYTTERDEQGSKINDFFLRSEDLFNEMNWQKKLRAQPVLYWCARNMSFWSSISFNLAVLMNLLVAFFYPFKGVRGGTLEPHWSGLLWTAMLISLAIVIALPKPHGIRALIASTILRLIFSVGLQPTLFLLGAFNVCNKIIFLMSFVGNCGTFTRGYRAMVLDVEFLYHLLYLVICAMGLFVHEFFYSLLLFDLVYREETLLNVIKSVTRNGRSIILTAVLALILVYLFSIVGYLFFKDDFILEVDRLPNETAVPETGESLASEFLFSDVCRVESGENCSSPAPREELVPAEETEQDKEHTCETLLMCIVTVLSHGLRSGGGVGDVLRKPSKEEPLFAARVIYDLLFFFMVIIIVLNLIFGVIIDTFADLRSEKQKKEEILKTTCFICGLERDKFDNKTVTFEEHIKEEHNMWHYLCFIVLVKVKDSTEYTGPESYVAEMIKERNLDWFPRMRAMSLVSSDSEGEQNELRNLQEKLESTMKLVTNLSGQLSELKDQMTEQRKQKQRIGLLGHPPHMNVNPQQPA

How the values were obtained:
[1] = biological target: endogenous IP3R1 of HeLa cells (UniProt Q14643); assay: co-immunoprecipitation from untransfected HeLa cell lysate
[2] = biological target: endogenous IP3R1 of HeLa cells (UniProt Q14643); assay: co-immunoprecipitation from DSP-crosslinked HeLa cells, western blot

- binding [1]: binds
- binding [2]: binds
B1: endogenous ERp44 of HeLa cells (protein, human, UniProt Q9BS26 30-406, looked up)
chain: EITSLDTENIDEILNNADVALVNFYADWCRFSQMLHPIFEEASDVIKEEFPNENQVVFARVDCDQHSDIAQRYRISKYPTLKLFRNGMMMKREYRGQRSVKALADYIRQQKSDPIQEIRDLAEITTLDRSKRNIIGYFEQKDSDNYRVFERVANILHDDCAFLSAFGDVSKPERYSGDNIIYKPPGHSAPDMVYLGAMTNFDVTYNWIQDKCVPLVREITFENGEELTEEGLPFLILFHMKEDTESLEIFQNEVARQLISEKGTINFLHADCDKFRHPLLHIQKTPADCPVIAIDSFRHMYVFGDFKDVLIPGKLKQFVFDLHSGKLHREFHHGPDPTDTAPGEQAQDVASSPPESSFQKLAPSEYRYTLLRDRDEL
